Test results from patent publication US20220193251A1 (Ludwig-Maximilians-Universitaet Muenchen, priority 2020, published 2022).

Assay: general procedure: solution-phase peptide synthesis; PyBOP/DIPEA; HOBt/DIPEA with PNP carbonate; OSu esters
Details: conjugation step, TFA salt

Boc-Glu-(VC-PAB-MMAE)2
conjugation yield: 55.8%
